No constants are given. Whether binding was seen depends on the method and setting. For some assays here: In cells and extracts the contact can be indirect. Some binding calls cover weakened binding; strength is not graded here. For some assays here: Sequences can lack the tags named with a protein.
Key:
[1] = target: T1, Ckb2 fused to the GAL4 DNA binding domain (S. cerevisiae) (UniProt P38930); assay: two-hybrid
T1 sequence: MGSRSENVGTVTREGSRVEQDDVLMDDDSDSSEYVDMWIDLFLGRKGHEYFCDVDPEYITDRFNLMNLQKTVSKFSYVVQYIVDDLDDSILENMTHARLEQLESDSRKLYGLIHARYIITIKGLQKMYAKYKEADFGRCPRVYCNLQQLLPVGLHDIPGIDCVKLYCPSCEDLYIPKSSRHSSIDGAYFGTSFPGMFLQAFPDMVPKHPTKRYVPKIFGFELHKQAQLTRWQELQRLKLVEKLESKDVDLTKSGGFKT

Amino acid sequences for entries named in this document (tags omitted).
UniProt P20436: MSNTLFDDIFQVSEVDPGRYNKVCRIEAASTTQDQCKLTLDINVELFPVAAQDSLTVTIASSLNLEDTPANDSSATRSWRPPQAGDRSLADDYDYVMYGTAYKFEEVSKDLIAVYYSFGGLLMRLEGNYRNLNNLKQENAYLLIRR

[2] = target: T2, Ifh1 fused to the GAL4 DNA binding domain (S. cerevisiae) (UniProt P39520); assay: two-hybrid
T2 sequence: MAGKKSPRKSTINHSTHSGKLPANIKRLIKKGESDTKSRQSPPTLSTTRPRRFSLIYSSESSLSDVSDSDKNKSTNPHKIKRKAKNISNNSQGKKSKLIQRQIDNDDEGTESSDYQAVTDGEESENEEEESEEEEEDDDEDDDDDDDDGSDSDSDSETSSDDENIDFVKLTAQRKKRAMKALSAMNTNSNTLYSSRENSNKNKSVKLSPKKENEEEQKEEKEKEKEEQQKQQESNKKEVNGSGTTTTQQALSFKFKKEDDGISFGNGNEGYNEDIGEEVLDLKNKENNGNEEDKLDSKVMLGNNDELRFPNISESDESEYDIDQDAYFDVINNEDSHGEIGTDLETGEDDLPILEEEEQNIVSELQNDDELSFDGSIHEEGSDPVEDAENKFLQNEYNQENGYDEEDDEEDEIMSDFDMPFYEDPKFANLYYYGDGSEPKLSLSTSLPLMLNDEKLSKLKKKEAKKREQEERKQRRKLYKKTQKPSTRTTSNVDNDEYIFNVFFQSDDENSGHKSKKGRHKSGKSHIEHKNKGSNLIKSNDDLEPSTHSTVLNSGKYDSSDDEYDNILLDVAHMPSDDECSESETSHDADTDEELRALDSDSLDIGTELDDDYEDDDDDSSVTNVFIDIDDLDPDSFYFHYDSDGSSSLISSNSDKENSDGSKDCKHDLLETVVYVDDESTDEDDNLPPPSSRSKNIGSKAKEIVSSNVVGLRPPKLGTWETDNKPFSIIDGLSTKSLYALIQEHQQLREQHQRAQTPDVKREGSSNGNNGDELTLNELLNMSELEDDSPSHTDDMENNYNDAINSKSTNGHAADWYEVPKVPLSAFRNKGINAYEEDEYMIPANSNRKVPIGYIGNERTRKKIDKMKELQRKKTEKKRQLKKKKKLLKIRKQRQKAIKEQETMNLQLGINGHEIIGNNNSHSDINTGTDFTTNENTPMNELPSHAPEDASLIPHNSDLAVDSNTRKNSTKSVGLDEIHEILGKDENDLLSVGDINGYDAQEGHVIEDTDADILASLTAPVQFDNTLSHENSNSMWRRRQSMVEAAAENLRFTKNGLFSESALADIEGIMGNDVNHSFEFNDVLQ

[3] = target: T3, Rrp7 fused to the GAL4 DNA binding domain (S. cerevisiae) (UniProt P25368); assay: two-hybrid
T3 sequence: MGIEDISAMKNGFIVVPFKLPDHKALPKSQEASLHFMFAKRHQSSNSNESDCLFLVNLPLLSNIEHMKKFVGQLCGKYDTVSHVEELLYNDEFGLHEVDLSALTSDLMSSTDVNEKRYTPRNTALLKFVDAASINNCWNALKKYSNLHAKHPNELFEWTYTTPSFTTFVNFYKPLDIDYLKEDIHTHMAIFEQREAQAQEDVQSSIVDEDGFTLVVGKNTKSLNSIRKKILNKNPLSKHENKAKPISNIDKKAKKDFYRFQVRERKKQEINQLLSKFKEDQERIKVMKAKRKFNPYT

[4] = target: T4, Utp22 fused to the GAL4 DNA binding domain (S. cerevisiae) (UniProt P53254); assay: two-hybrid
T4 sequence: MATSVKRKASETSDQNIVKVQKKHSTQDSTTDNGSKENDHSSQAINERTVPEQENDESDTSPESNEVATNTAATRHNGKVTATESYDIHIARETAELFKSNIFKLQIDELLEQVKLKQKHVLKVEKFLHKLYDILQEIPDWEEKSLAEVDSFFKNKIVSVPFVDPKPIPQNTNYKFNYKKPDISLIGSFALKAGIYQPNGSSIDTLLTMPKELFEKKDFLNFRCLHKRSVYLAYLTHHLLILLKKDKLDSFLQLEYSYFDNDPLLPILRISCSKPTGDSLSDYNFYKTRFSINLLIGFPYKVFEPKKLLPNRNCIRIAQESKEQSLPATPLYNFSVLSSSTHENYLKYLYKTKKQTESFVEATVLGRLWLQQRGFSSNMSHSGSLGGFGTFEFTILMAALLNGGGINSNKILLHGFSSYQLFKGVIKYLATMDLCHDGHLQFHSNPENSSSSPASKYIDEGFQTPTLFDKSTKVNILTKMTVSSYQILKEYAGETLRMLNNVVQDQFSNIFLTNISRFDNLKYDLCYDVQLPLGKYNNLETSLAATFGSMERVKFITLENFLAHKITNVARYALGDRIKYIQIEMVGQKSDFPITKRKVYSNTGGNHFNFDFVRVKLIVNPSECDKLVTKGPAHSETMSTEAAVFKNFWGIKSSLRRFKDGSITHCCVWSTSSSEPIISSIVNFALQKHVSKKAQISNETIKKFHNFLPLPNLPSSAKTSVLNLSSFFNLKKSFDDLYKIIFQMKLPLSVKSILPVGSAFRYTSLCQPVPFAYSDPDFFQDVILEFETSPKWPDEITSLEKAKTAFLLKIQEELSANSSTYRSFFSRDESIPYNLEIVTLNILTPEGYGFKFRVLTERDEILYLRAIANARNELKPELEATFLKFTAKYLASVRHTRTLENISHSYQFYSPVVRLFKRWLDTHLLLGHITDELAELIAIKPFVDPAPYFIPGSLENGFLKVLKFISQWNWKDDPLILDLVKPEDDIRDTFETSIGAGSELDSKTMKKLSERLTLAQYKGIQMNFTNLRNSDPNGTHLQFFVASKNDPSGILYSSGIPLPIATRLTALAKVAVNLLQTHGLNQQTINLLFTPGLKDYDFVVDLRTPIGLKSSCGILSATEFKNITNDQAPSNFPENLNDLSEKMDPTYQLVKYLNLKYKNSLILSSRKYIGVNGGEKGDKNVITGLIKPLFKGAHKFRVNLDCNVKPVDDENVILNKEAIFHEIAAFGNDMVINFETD

Noc4-TAP (S. cerevisiae) = target: T5, Noc4-TAP (S. cerevisiae) (UniProt Q06512); assay: tandem affinity purification
T5 sequence: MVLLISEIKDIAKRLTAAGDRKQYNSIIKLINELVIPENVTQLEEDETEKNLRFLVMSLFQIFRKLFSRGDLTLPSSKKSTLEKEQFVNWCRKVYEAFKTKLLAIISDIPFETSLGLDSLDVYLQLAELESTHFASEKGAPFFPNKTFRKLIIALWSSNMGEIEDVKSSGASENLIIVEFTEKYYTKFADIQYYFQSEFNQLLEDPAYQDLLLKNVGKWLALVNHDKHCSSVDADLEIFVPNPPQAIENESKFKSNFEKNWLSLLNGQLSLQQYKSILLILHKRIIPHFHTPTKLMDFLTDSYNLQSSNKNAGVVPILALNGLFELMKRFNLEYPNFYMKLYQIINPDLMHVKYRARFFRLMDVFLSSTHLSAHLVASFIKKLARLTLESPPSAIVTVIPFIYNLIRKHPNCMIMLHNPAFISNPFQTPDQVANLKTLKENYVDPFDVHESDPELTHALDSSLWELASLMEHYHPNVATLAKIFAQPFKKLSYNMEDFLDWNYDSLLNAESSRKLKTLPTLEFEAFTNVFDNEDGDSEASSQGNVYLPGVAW

Nop7-TAP (S. cerevisiae) = target: T6, Nop7-TAP (S. cerevisiae) (UniProt P53261); assay: tandem affinity purification
T6 sequence: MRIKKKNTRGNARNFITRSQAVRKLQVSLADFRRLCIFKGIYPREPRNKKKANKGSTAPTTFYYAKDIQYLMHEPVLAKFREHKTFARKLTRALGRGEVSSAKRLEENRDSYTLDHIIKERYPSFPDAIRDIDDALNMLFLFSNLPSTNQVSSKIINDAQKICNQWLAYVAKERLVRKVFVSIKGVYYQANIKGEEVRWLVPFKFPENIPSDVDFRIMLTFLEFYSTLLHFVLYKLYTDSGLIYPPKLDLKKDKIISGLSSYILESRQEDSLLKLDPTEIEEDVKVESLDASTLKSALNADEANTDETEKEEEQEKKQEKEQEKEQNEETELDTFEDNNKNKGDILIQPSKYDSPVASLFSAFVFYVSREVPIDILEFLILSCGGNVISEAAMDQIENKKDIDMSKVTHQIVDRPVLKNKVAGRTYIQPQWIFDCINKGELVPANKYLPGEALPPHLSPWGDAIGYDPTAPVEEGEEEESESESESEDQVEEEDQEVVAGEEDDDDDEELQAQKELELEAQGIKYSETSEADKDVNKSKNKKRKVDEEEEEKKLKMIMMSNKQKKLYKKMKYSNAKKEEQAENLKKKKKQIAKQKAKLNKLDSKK

Rpb8-TAP (S. cerevisiae) = Rpb8-TAP (S. cerevisiae) (UniProt P20436); assay: tandem affinity purification
Rrp7-Vn (S. cerevisiae) = target: T7, Rrp7-Vn (S. cerevisiae) (UniProt P25368); assay: split reporter
T7 sequence: T3 sequence

B1: Stm1Δ176-225 fused to the GAL4 activation domain (protein, UniProt P39015)
chain: MSNPFDLLGNDVEDADVVVLPPKEIVKSNTSSKKADVPPPSADPSKARKNRPRPSGNEGAIRDKTAGRRNNRSKDVTDSATTKKSNTRRATDRHSRTGKTDTKKKVNQGWGDDKKELSAEKEAQADAAAEIAEDAAEAEDAGKPKTAQLSLQDYLNQQANNQFNKVPEAKKVELDNNNSRNNFNNRRGGRGARKGNNTANATNSANTVQKNRNIDVSNLPSLA
binding [1]: binds
binding [2]: binds
binding [3]: binds
binding [4]: binds

B2: untagged, endogenous Stm1 (protein, UniProt P39015 1-273)
chain: MSNPFDLLGNDVEDADVVVLPPKEIVKSNTSSKKADVPPPSADPSKARKNRPRPSGNEGAIRDKTAGRRNNRSKDVTDSATTKKSNTRRATDRHSRTGKTDTKKKVNQGWGDDKKELSAEKEAQADAAAEIAEDAAEAEDAGKPKTAQLSLQDYLNQQANNQFNKVPEAKKVELDAERIETAEKEAYVPATKVKNVKSKQLKTKEYLEFDATFVESNTRKNFGDRNNNSRNNFNNRRGGRGARKGNNTANATNSANTVQKNRNIDVSNLPSLA
binding (Noc4-TAP (S. cerevisiae)): binds
binding (Nop7-TAP (S. cerevisiae)): binds
binding (Rpb8-TAP (S. cerevisiae)): no binding

B3: Vc-Stm1 (protein, UniProt P39015 1-273)
chain: B2 chain
binding (Rrp7-Vn (S. cerevisiae)): binds

Reference: publication doi:10.1101/2024.04.22.590536 (bioRxiv, 2024)
